Data published in patent publication US20200148768A1.
No constants are given. Whether binding was seen depends on the method and setting. Some entries that bind do so weakly or less than the wild type. Where a sequence is shown, tags or fusion partners need not be part of it. Values belong to the binder of their own block, whether it stands above or below them.

What was measured:
[1] = target: T1, human BTN1A1-ECD-His6 (human), Q13410; test: dot blot, lanes 9 and 10; antigen not labelled on the sheet, taken from legend paragraph 65 as BTN1A1-ECD-His6 without and with PNGase F; layout from D00019 FIG. 19B; details: remark: other sources report otherwise
T1 chain: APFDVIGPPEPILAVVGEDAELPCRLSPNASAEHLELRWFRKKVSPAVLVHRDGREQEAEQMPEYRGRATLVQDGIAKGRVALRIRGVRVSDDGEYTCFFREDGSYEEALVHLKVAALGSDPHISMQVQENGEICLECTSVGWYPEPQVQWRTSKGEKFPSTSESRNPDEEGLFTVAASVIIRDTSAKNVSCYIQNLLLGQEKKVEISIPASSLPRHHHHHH

[2] = target: T1, human BTN1A1-ECD-His6 (human), Q13410; test: dot blot, BTN1A1-ECD-His with and without PNGase F; details: remark: other sources report otherwise

- binding [1]: binds
- binding [2]: binds
B1: STC810 (antibody, V domains shown)
VH: EVQLQQSGPELVKPGASVKISCKASGYTFTHYNMDWVKQSHGKSLEWIGYIYPSNGGTGYNQKFKSRATLTVDKSSSTAYMELHSLTSEDSAVYYCARGAYHYGSSYAYWYFDVWGAGTTVTVSS
VL: DIQMTQTTSSLSASLGDRVTISCSASQDISNYLNWYQQKPDETVKLLISYTSSLHSGVPSRFSGSGSGTDYSLTISNLAPEDIATYYCQQSSKLPFTFGSGTELEIKRA
modifications: here or on the partner: N-glycosylated (PNGase F sensitive)

- binding [1]: binds
- binding [2]: binds
B2: STC838 (antibody, V domains shown)
VH: B1 VH
VL: B1 VL
modifications: here or on the partner: N-glycosylated (PNGase F sensitive)
